The target in test [1] is T1, S100a9 lactylated at lysine 26 (S100a9K26la) (mouse (endogenous in neutrophils)) (UniProt P31725).
T1 sequence (chain, lactyl-lysine at 26 (K26la)): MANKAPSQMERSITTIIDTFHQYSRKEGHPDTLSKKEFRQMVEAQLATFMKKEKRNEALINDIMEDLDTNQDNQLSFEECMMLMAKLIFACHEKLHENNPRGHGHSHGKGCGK
Kind of test: affinity purification with mass spectrometry; co-IP coupled to MS of S100a9K26la from neutrophils.

By UniProt entry, the sequences of proteins in these tests, tags left out.
UniProt P70168: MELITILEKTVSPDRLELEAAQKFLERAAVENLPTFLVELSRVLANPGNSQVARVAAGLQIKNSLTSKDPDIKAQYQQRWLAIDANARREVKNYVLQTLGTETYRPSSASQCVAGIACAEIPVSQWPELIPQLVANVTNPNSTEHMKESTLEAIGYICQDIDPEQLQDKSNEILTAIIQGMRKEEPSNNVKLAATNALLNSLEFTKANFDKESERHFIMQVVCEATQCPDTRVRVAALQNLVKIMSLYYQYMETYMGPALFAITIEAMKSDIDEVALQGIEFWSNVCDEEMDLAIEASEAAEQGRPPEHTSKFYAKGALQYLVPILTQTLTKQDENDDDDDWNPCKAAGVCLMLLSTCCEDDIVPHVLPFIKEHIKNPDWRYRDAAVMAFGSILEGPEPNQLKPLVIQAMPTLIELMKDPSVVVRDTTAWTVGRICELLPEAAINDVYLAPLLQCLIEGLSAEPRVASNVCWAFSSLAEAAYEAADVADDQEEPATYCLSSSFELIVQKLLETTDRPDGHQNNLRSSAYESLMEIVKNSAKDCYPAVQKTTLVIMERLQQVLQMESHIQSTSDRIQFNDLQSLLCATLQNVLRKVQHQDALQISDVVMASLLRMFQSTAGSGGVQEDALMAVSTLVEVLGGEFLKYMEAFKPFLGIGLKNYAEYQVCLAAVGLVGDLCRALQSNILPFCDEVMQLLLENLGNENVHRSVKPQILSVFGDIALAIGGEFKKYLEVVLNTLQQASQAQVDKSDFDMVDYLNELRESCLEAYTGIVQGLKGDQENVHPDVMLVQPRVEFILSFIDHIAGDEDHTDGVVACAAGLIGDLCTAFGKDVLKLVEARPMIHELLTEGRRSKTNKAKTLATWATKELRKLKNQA

Test [2] concerns the target T1, S100a9 lactylated at lysine 26 (S100a9K26la) (mouse (endogenous in neutrophils)). Kind of test: affinity purification with mass spectrometry; MS of anti-S100a9K26la immunoprecipitates (against IgG) from BM neutrophils 1 day after MI/R.

The values below come from PMC12700540.

Results are given in words; binding and its absence hold for the method and conditions named. In cells and extracts the contact can be indirect. These calls come from enrichment with a bait or labelling near it, and not all partners need be listed.

Regarding importin β1 (from UniProt P70168 1-876), the binding entry in test [1] is listed as “binds”.

B1: dihydrolipoyllysine-residue acetyltransferase (DLAT) (enzyme, UniProt Q8BMF4 86-642)
chain: SLPPHQKVPLPSLSPTMQAGTIARWEKKEGEKISEGDLIAEVETDKATVGFESLEECYMAKILVPEGTRDVPVGSIICITVEKPQDIEAFKNYTLDLAAAAAPQAAPAAAPAPAAAPAAPSASAPGSSYPTHMQIVLPALSPTMTMGTVQRWEKKVGEKLSEGDLLAEIETDKATIGFEVQEEGYLAKILVPEGTRDVPLGAPLCIIVEKQEDIAAFADYRPTEVTSLKPQAAPPAPPPVAAVPPTPQPVAPTPSAAPAGPKGRVFVSPLAKKLAAEKGIDLTQVKGTGPEGRIIKKDIDSFVPSKAAPAAAAAMAPPGPRVAPAPAGVFTDIPISNIRRVIAQRLMQSKQTIPHYYLSVDVNMGEVLLVRKELNKMLEGKGKISVNDFIIKASALACLKVPEANSSWMDTVIRQNHVVDVSVAVSTPAGLITPIVFNAHIKGLETIASDVVSLASKAREGKLQPHEFQGGTFTISNLGMFGIKNFSAIINPPQACILAIGASEDKLIPADNEKGFDVASVMSVTLSCDHRVVDGAVGAQWLAEFKKYLEKPITMLL
On to B1, for which the binding result in test [2] was “binds”.
